At least one structure is not confirmed: it was looked up by name or label, or the drawing left a doubt.
Tested on: MerCreMer/ZEG (M/Z) mice
Experiment: Cardiomyocyte replenishment after myocardial infarction, GFP+ / β-Gal+ cardiomyocyte counting
Format: in vivo, mouse
Conditions: 14-day treatment, 5 μg per 1 g body weight i.p. daily
Procedure: All experiments involving animals were conducted in accordance with the Guide for the Use and Care of Laboratory Animals, and all animal protocols have been approved by National Cheng Kung University. Sca-1^− GFP, B6.Cg-Tg(Ly6a-GFP)G5Dzk/J and EP2^−/−, B6.129-Ptger2^tm/Brey/J mice were obtained from Jackson Laboratory. The double transgenic MerCreMer/ZEG (M/Z) mice were generated by crossbreeding MerCreMer and Z/EG mice (Jackson Laboratory), which have C57BL/6SV129 and C57BL/6J (N7) background strains, respectively. The MerCreMer mice contain a tamoxifen-inducible Cre recombinase fusion protein driven by the cardiomyocyte-specific α-MHC promoter. […]
M/Z mice were subjected to experimental myocardial infarction (MI) one month after the last tamoxifen injection. […] Cardiac performances were assessed by echocardiography at 28 and 56 days after operation using Vevo 770 (Visualsonics, Toronto, Canada). […]
All of the cellular quantifications were performed double-blindly to minimize personal bias. […] For the cardiomyocyte cell counts, 3 sections from each heart, and 2 infarction border zones and 1 remote area from each section were analyzed at a magnification of 200× by light microscopy. Cells with visible sarcomere structures were analyzed, and the average number of cells counted was 171.8±5.8 per photo image. […]

For `Cc1ccc(-c2cc(C(F)(F)F)nn2-c2ccc(S(N)(=O)=O)cc2)cc1` [Celecoxib], the cardiomyocyte replenishment was “effectively blocked”.
